These results are taken from article PMC6165360.

Tags and fusion partners may be left off the protein sequences shown.

For the series, the target named is T1, C-reactive protein (CRP) (human) (UniProt P02741).
T1 sequence (looked up, limits assumed): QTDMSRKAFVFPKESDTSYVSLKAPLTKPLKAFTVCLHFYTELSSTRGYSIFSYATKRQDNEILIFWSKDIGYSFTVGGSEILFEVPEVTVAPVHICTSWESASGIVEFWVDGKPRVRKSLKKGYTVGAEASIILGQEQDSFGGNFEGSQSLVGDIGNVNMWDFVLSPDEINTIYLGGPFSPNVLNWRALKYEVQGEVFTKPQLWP
In words: etched fiber Bragg grating optical biosensor, Langmuir-Freundlich fit. Conditions: 1 mM Mg2+, 1 mM Ca2+, 3'-C6-SH thiol, 140 mM NaCl, 5 mM KCl, 1 mM MgCl2, 1 mM CaCl2, 50 wt% glycerol, 20 mM Tris, pH 7.4, 10 min incubation, temperature not stated, aptamer immobilized on fiber, commercial protein, folded or branched DNA.

Sequence “CCCCCGCGGGTCGGCTTGCCGTTCCGTTCGGCGCTTCCCCTTTTTTTTT [CRP-40-17-3'SH]” gave a Ka (1.8 mg/mL ascorbic acid and 1.8 mg/mL urea, beta 0.486 +/- 0.030, N=8) of 888000 nM⁻¹; a Ka (diluted CRP-deficient human plasma, beta 0.816 +/- 0.105, N=3) of 768000 nM⁻¹; a Ka (no interfering substances, beta 0.355 +/- 0.022, N=5) of 348000 nM⁻¹.
